{"sequences": {"note": "The chains behind the UniProt entries cited, without tags or fusion partners.", "UniProt P28223, whole entry, looked up": "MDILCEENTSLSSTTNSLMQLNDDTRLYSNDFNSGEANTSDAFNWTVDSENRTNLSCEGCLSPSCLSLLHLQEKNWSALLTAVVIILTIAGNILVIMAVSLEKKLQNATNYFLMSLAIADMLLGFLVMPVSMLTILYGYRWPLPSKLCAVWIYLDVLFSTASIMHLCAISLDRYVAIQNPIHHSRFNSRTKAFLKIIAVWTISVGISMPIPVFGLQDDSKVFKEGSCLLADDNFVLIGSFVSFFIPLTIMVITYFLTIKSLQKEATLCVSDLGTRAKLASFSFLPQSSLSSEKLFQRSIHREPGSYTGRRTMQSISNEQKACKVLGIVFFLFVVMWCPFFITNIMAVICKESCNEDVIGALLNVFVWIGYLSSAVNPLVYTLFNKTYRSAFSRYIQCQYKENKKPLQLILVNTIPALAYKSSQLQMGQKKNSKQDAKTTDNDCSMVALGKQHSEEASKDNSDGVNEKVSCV", "UniProt P14416, whole entry, looked up": "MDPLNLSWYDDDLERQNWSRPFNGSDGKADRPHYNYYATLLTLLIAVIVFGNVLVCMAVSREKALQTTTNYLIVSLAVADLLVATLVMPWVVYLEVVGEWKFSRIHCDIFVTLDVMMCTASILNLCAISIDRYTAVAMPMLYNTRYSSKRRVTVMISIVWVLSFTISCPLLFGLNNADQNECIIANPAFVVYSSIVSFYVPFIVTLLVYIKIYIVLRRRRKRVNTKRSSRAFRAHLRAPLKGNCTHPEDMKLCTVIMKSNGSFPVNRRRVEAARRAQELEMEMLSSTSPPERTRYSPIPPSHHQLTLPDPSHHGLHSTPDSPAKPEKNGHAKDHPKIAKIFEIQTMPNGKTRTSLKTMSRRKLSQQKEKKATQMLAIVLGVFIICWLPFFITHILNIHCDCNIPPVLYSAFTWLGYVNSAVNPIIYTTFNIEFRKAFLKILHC"}, "source": "PubChem BioAssay (Tox21)", "key": {"[1]": {"experiment": "Nuclear factor erythroid 2-related factor 2/antioxidant responsive element (Nrf2/ARE) small molecule agonists: luciferase reporter gene qHTS assay in human keratinocytes (AID 1919969); further: nearly all actives have a fitted effect of over 35% in size; further: potency means the concentration at half of the fitted maximal effect", "conditions": "KeratinoSens HaCaT ARE-luciferase, luminescence, 24 h; activity, positive = activation: at 92.4 µM (top of the series)"}, "[2]": {"experiment": "p53 small molecule agonists, cell-based qHTS assay: qHTS cell viability counter screen (AID 1963581); further: potency means the concentration at half of the fitted maximal effect; nearly all actives have a fitted effect of over 45% in size", "conditions": "p53RE-bla HCT-116 viability, ATP luminescence, 16 h; series mostly up to 66 µM", "procedure,_shortened": "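qHTS counter screen: 16 h compound exposure at 37 C of p53RE-bla HCT-116 cells (4,000 per well, seeded 5 h prior), cell viability by ATP luminescence.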"}, "[3]": {"experiment": "p53 small molecule agonists, cell-based qHTS assay (AID 1963582; active means well fitted activation curve with a large enough effect in the signal ratio in the repeat runs, not every such curve was filed as active; inconclusive means weak or mixed curves; the % refers to the signal ratio; further: potency means the concentration at half of the fitted maximal effect)", "conditions": "HCT-116 p53RE-bla reporter, beta-lactamase FRET ratio, 16 h; activation: at 66 µM (top of the series) unless noted", "procedure,_shortened": "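Measured: fluorescence from cleaved LiveBLAzer substrate. System: p53RE-bla cells, 16 h compound treatment at 37 C, 2 h substrate step at room temperature.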"}, "[4]": {"target": "5-hydroxytryptamine receptor 2A (Homo sapiens) (UniProt P28223)", "experiment": "5-hydroxytryptamine receptor 2A (HTR2A) small molecule antagonists, cell-based qHTS assay (AID 1963586); further: potency means the concentration at half of the fitted maximal effect; nearly all actives have a fitted effect of over 45% in size", "conditions": "HTR2A-CHO cells, DOI-induced calcium flux, fluorescence; series mostly up to 61.5 µM", "procedure,_shortened": "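CHO cells stably expressing human HTR2A were plated for 18 h at 37 C, then loaded with calcium dye for 1 h. Compounds were preincubated 5 min at room temperature before DOI (4 nM solution) was added. Kinetic fluorescence was read for 3 min.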"}, "[5]": {"experiment": "cAMP Responsive Elements (CRE) small molecule agonists, cell-based qHTS assay (AID 1963590); further: potency means the concentration at half of the fitted maximal effect; on activation: on the % scale 0 is the no-effect control and ±100 the full control effect", "conditions": "CRE-bla HEK293T, beta-lactamase FRET ratio, 3 h; activation: at 92.4 µM (top of the series) unless noted", "procedure,_shortened": "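Test agents in DMSO were incubated 3 h at 37 C/5% CO2 with CRE-bla HEK 293T cells seeded 18 h earlier; LiveBLAzer B/G FRET substrate was added and read after 2 h at room temperature.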"}, "[6]": {"target": "Beta-2 adrenergic receptor (Homo sapiens) (UniProt P07550)", "experiment": "Adrenergic beta2 receptor (ADRB2) small molecule agonists, cell-based qHTS assay (AID 1963593); further: potency means the concentration at half of the fitted maximal effect; on activation: on the % scale 0 is the no-effect control and ±100 the full control effect", "conditions": "CHO-ADRB2 cells, cAMP HTRF, 30 min", "procedure,_shortened": "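CHO cells stably over-expressing ADRB2 were plated overnight at 37C, then dosed with compounds plus a stimulation mix containing 100uM IBMX and 25uM Ro-20-1724 for 0.5hr at room temperature. cAMP was measured by HTRF competition, 1hr.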"}, "[7]": {"experiment": "p53 small molecule agonists, cell-based qHTS assay with rat liver microsomes: qHTS cell viability counter screen (AID 1963580); further: nearly all actives have a fitted effect of over 45% in size; further: potency means the concentration at half of the fitted maximal effect", "conditions": "p53RE-bla HCT-116 + rat microsomes, ATP viability, 16 h; series mostly up to 66 µM", "procedure,_shortened": "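Luminescent ATP readout (CellTiter-Glo, 30 min at room temperature) reports viability of p53RE-bla HCT-116 cells after 16 h at 37 C with test compounds under metabolic activation by rat liver microsomes and NADPH at 0.5 mg/mL final each.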"}, "[8]": {"experiment": "cAMP Responsive Elements (CRE) small molecule antagonists, cell-based qHTS assay (AID 1963591; active means well fitted inhibition curve with a large enough effect in the signal ratio in the repeat runs, not every such curve was filed as active; inconclusive means weak or mixed curves, or effect the other way; the % refers to the signal ratio; further: potency means the concentration at half of the fitted maximal effect; on activity change, negative = inhibition: on the % scale 0 is the no-effect control and ±100 the full control effect)", "conditions": "CRE-bla HEK293T, beta-lactamase FRET ratio; activity change, negative = inhibition: at 92.4 µM (top of the series) unless noted", "procedure,_shortened": "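Reporter line CRE-bla HEK 293T in dialyzed-FBS DMEM; cells preincubated 18 h, treated 3 h with compound plus NKH477 (0.25 uM final); LiveBLAzer FRET, 2 h RT.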"}, "[9]": {"target": "5-hydroxytryptamine receptor 2A (Homo sapiens) (UniProt P28223)", "experiment": "5-hydroxytryptamine receptor 2A (HTR2A) small molecule agonists, cell-based qHTS assay (AID 1963587); further: potency means the concentration at half of the fitted maximal effect; nearly all actives have a fitted effect of over 30% in size", "conditions": "HTR2A-CHO cells, calcium flux fluorescence, agonist mode; series mostly up to 76.8 µM", "procedure,_shortened": "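HTR2A-CHO cells, plated 18 h at 37 C/5% CO2, dye-loaded 1 h at 37 C; compounds in DMSO added by pin tool (agonist mode). Intracellular calcium flux read as kinetic fluorescence on FDSS over 2 min at 1 s intervals.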"}, "[10]": {"target": "D(2) dopamine receptor (Homo sapiens) (UniProt P14416)", "experiment": "Dopamine D2 receptor (DRD2) small molecule antagonists, cell-based qHTS assay (AID 1963595; active means well fitted inhibition curve with a large enough effect in the signal ratio in the repeat runs, with a control signal flat; inconclusive means weak or mixed curves, or effect the other way; the % refers to the signal ratio; further: on the % scale 0 is the no-effect control and ±100 the full control effect)", "conditions": "HEK293-DRD2 cAMP HTRF antagonist mode; activity change, negative = inhibition: at 92.4 µM (top of the series) unless noted", "procedure,_shortened": "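In this cell-based antagonist screen, compounds act for 10 min at room temperature before a 30 min challenge with 12 nM quinpirole and 200 nM NKH477. cAMP is quantified by HTRF competition in DRD2-HEK293 cells containing 0.1 mM Ro20-1724.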"}, "[11]": {"conditions": "activation: at 92.4 µM (top of the series) unless noted"}}, "note": "Values joined by “and” are separate entries in the source; they are usually repeats but may differ in a detail not shown here. Equal entries are not always repeated. Inconclusive results, whose numbers are uncertain, are shown with a selection of clear calls. For some assays here: Potencies of inconclusive entries are doubtful fits and often do not repeat. Active and inactive are the calls of the source. Unless noted, the call rests on the fitted dose curve.", "data": [{"smiles": "O=S(c1cc(Cl)cc(Cl)c1O)c1cc(Cl)cc(Cl)c1O", "values": [{"measurement": "Potency", "setting": "[1]", "result": "inconclusive: 33.5 µM [activator, single point]"}, {"measurement": "Potency", "setting": "[2]", "result": "inconclusive: 14.1 µM [cytotoxic, single point]"}, {"measurement": "Potency", "setting": "[3]", "result": "active: 17.8 µM"}, {"measurement": "Potency", "setting": "[4]", "result": "inconclusive: 20.5 µM [inhibitor, single point]"}, {"measurement": "Potency", "setting": "[5]", "result": "inconclusive: 33.5 µM [rising, single point]"}, {"measurement": "activation", "setting": "[6]; [11]", "result": "inconclusive: -47.1% [at 42.5 µM]"}]}, {"smiles": "OCCOCC#CCOCCO", "values": [{"measurement": "Potency", "setting": "[1]", "result": "inconclusive: 15.4 µM [activator, single point]"}, {"measurement": "Potency", "setting": "[7]", "result": "inconclusive: 51.3 µM [rising, partial curve, poor fit]"}, {"measurement": "Potency", "setting": "[8]", "result": "inconclusive: 68.6 µM [activator, single point]"}, {"measurement": "activation", "setting": "[6]; [11]", "result": "inconclusive: -19.4%"}]}, {"smiles": "OC1CCCCCCCCCCC1", "values": [{"measurement": "Potency", "setting": "[1]", "result": "inconclusive: 55 µM [activator, partial curve] and inconclusive: 68.6 µM [activator, partial curve, poor fit]"}, {"measurement": "Potency", "setting": "[2]", "result": "inconclusive: 4.62 µM [cytotoxic, single point]"}, {"measurement": "Potency", "setting": "[4]", "result": "inconclusive: 21.3 µM [inhibitor, partial curve, poor fit]"}, {"measurement": "Potency", "setting": "[9]", "result": "inconclusive: 49 µM [activator, single point]"}, {"measurement": "Potency", "setting": "[5]", "result": "inactive"}, {"measurement": "Potency", "setting": "[8]", "result": "inactive"}, {"measurement": "Potency", "setting": "[6]; [11]", "result": "inconclusive: 2.76 µM [inhibitor, single point]"}, {"measurement": "activation", "setting": "[6]; [11]", "result": "inconclusive: -21.9%"}]}, {"smiles": "O=c1[nH]c(=O)n([C@H]2CCCO2)cc1F", "values": [{"measurement": "Potency", "setting": "[1]", "result": "inactive and inconclusive: 33.5 µM [activator, single point]"}, {"measurement": "Potency", "setting": "[7]", "result": "inactive"}, {"measurement": "activation", "setting": "[6]; [11]", "result": "inconclusive: 6.45% [at 42.5 µM]"}, {"measurement": "activation", "setting": "[6]; at 92.4 µM (top of the series)", "result": "inactive: -20.8%"}, {"measurement": "activity change, negative = inhibition", "setting": "[10]", "result": "inconclusive: -21.5% [at 42.5 µM]"}]}]}
